Reference: doi:10.1101/2020.02.20.955922
These are yes or no findings as the source states them, for the method shown. In cells and extracts the contact can be indirect. A yes stands for co-enrichment or nearness to the bait. Other partners may have been found. Where a sequence is shown, tags or fusion partners need not be part of it.

T1: TSN1-TAPa (Tudor Staphylococcal Nuclease 1 with C-terminal TAPa tag) (Arabidopsis thaliana) (UniProt Q8VZG7)
T1 sequence: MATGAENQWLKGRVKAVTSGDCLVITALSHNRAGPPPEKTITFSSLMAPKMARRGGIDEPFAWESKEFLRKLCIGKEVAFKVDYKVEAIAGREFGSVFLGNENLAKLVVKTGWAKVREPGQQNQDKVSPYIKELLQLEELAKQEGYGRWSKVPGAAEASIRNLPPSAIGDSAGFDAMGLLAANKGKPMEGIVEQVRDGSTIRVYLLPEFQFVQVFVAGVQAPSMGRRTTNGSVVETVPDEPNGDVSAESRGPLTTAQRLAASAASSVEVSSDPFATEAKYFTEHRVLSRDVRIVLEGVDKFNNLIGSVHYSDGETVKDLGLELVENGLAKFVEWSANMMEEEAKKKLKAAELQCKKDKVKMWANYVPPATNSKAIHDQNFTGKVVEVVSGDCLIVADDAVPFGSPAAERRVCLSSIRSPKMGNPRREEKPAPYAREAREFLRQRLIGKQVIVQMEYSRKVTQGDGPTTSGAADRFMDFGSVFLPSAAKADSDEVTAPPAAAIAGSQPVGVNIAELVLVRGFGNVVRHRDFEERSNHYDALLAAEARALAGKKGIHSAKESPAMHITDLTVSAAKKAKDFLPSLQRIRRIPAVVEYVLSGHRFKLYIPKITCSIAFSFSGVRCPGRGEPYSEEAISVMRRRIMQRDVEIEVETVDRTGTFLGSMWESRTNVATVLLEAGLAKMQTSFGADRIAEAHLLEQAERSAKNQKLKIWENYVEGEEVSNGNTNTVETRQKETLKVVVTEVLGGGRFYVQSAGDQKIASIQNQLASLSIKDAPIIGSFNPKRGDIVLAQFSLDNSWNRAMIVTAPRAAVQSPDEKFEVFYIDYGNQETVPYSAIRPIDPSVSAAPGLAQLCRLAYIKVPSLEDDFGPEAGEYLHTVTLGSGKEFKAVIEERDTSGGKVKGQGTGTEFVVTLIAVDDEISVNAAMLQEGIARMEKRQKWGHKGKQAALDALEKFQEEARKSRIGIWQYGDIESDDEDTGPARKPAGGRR

T2: TSN2-TAPa (Tudor Staphylococcal Nuclease 2 with C-terminal TAPa tag) (Arabidopsis thaliana) (UniProt Q9FLT0)
T2 sequence: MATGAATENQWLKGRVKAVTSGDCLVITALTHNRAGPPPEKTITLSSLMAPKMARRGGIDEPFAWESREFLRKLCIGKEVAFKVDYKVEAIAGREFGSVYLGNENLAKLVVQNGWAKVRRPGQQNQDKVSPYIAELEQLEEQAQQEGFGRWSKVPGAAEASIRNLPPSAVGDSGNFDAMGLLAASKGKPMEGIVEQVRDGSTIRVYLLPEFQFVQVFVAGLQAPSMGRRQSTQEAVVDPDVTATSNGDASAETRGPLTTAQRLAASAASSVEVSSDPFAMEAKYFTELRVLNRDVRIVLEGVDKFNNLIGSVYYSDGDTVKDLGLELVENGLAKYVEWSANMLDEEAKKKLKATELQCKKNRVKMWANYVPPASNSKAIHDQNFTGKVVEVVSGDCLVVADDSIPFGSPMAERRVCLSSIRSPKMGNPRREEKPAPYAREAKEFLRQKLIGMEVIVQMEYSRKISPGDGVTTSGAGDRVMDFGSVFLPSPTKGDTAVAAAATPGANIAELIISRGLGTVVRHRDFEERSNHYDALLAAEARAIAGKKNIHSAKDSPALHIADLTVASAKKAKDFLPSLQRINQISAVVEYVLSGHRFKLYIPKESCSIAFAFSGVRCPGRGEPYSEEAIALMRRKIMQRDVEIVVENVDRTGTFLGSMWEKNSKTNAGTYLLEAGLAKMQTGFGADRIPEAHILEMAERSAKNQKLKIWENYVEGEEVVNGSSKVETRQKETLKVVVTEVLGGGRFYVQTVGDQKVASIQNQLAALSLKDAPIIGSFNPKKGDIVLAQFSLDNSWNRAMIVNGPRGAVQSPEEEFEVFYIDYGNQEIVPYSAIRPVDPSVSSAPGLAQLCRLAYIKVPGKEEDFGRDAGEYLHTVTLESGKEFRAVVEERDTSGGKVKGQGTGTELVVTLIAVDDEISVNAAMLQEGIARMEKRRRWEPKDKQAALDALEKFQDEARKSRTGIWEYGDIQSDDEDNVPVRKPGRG


How the values were obtained:
[1] = biological target: T1, TSN1-TAPa (Tudor Staphylococcal Nuclease 1 with C-terminal TAPa tag) (Arabidopsis thaliana); assay: affinity purification with mass spectrometry
[2] = biological target: T2, TSN2-TAPa (Tudor Staphylococcal Nuclease 2 with C-terminal TAPa tag) (Arabidopsis thaliana); assay: affinity purification with mass spectrometry

| Binder | binding [1] | binding [2] |
| --- | --- | --- |
| DEAD-box ATP-dependent RNA helicase 12 (RH12), endogenous (protein, UniProt Q9M2E0 1-498) MNTNRGRYPPGVGTGRGAPPNPDYHQSYRQQQPPQDQQYVQRGYSQNPQQMQLQQQHQQQQQQQQWSRRPQLPGNASNANEVVQQTTQPEASSDANGQDWKATLRLPPPDTRYQTADVTATKGNEFEDYFLKRDLLKGIYEKGFEKPSPIQEESIPIALTGSDILARAKNGTGKTGAFCIPVLEKIDPNNNVIQAMILVPTRELALQTSQVCKELSKYLNIQVMVTTGGTSLRDDIMRLHQPVHLLVGTPGRILDLTKKGVCVLKDCAMLVMDEADKLLSAEFQPSLEELIQFLPQNRQFLMFSATFPVTVKAFKDRHLRKPYVINLMDQLTLMGVTQYYAFVEERQKVHCLNTLFSKLQINQSIIFCNSVNRVELLAKKITELGYSCFYIHAKMVQDHRNRVFHEFRNGACRNLVCTDLFTRGIDIQAVNVVINFDFPRTSESYLHRVGRSGRFGHLGLAVNLVTYEDRFKMYQTEQELGTEIKPIPSNIDQAIYCQ | binds | binds |
| PAB4 (protein, UniProt O22173 1-662) MAQVQAPSSHSPPPPAVVNDGAATASATPGIGVGGGGDGVTHGALCSLYVGDLDFNVTDSQLYDYFTEVCQVVSVRVCRDAATNTSLGYGYVNYSNTDDAEKAMQKLNYSYLNGKMIRITYSSRDSSARRSGVGNLFVKNLDKSVDNKTLHEAFSGCGTIVSCKVATDHMGQSRGYGFVQFDTEDSAKNAIEKLNGKVLNDKQIFVGPFLRKEERESAADKMKFTNVYVKNLSEATTDDELKTTFGQYGSISSAVVMRDGDGKSRCFGFVNFENPEDAARAVEALNGKKFDDKEWYVGKAQKKSERELELSRRYEQGSSDGGNKFDGLNLYVKNLDDTVTDEKLRELFAEFGTITSCKVMRDPSGTSKGSGFVAFSAASEASRVLNEMNGKMVGGKPLYVALAQRKEERRAKLQAQFSQMRPAFIPGVGPRMPIFTGGAPGLGQQIFYGQGPPPIIPHQPGFGYQPQLVPGMRPAFFGGPMMQPGQQGPRPGGRRSGDGPMRHQHQQPMPYMQPQMMPRGRGYRYPSGGRNMPDGPMPGGMVPVAYDMNVMPYSQPMSAGQLATSLANATPAQQRTLLGESLYPLVDQIESEHAAKVTGMLLEMDQTEVLHLLESPEALNAKVSEALDVLRNVNQPSSQGSEGNKSGSPSDLLASLSINDHL | binds | binds |
| PAB8 (protein, UniProt Q9FXA2 1-671) MAQIQHQGQNANGGVAVPGAAAAEAAAAAAGAAAAAAGAAQQGTTSLYVGDLDATVTDSQLFEAFTQAGQVVSVRVCRDMTTRRSLGYGYVNYATPQDASRALNELNFMALNGRAIRVMYSVRDPSLRKSGVGNIFIKNLDKSIDHKALHETFSAFGPILSCKVAVDPSGQSKGYGFVQYDTDEAAQGAIDKLNGMLLNDKQVYVGPFVHKLQRDPSGEKVKFTNVYVKNLSESLSDEELNKVFGEFGVTTSCVIMRDGEGKSKGFGFVNFENSDDAARAVDALNGKTFDDKEWFVGKAQKKSERETELKQKFEQSLKEAADKSQGSNLYVKNLDESVTDDKLREHFAPFGTITSCKVMRDPSGVSRGSGFVAFSTPEEATRAITEMNGKMIVTKPLYVALAQRKEDRKARLQAQFSQMRPVNMPPAVGPRMQMYPPGGPPMGQQLFYGQGPPAMIPQPGFGYQQQLVPGMRPGGSPMPNFFMPMMQQGQQQQQQQQQQQRPGGGRRGALPQPQQPSPMMQQQMHPRGRMYRYPQRDVNTMPGPTQNMLSVPYDVSSGGGVHHRDSPTSQPVPIVALATRLANAAPEQQRTMLGENLYPLVEQLEPESAAKVTGMLLEMDQTEVLHLLESPEALKAKVTEAMDVLRSVAQQQAGGAADQLASLSLGDNIVP |  | binds |
| SKD1 (protein, UniProt Q9ZNT0 1-435) MYSNFKEQAIEYVKQAVHEDNAGNYNKAFPLYMNALEYFKTHLKYEKNPKIREAITQKFTEYLRRAEEIRAVLDEGGSGPGSNGDAAVATRPKTKPKDGEGGGKDGEDPEQSKLRAGLNSAIVREKPNIKWSDVAGLESAKQALQEAVILPVKFPQFFTGKRRPWRAFLLYGPPGTGKSYLAKAVATEADSTFFSVSSSDLVSKWMGESEKLVSNLFEMARESAPSIIFVDEIDSLCGTRGEGNESEASRRIKTELLVQMQGVGHNDEKVLVLAATNTPYALDQAIRRRFDKRIYIPLPEAKARQHMFKVHLGDTPHNLTEPDFEYLGQKTEGFSGSDVSVCVKDVLFEPVRKTQDAMFFFKSPDGTWMPCGPRHPGAIQTTMQDLATKGLAEKIIPPPITRTDFEKVLARQRPTVSKSDLDVHERFTQEFGEEG |  | binds |
